Measurements reported in PubChem BioAssay AID1259424 (University of Nebraska Medical Center, 2018)

Aim: 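Find knockdowns that reproduce the expression shifts seen after KSR1 loss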 (primary screen)
Cell system: human HCT116 colon cancer cells
Reagents: siRNA pool against human genes, 50 nM
Detection: 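Log2 levels of six mRNAs (branched-DNA multiplex), adjusted by two reference genes and the non-targeting median, then scored against the average KSR1 knockdown pattern as Pearson r and euclidean distance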
Reading the numbers: mean correlation with KSR1 profile and KSR1 correlation: higher = expression change more like KSR1 knockdown; mean distance from KSR1 profile: higher = expression change less like KSR1 knockdown
Shown is an unselected part of about 14,000 deposited reagents. 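Higher correlation or smaller distance means closer resemblance to KSR1 loss; control wells, including KSR1 knockdowns, recur on many plates.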 The record does not give: the time to read-out.

Gene | mean correlation with KSR1 profile | mean distance from KSR1 profile | KSR1 correlation, replicate 1 | KSR1 correlation, replicate 2 | KSR1 correlation, replicate 3
LAIR2 (leukocyte associated immunoglobulin like receptor 2) | 0.406 | 1.72 | 0.252 | 0.585 | 0.272
BLNK (B cell linker) | 0.497 | 3.08 | 0.428 | 0.447 | 0.309
DIABLO (diablo IAP-binding mitochondrial protein) | -0.733 | 3 | -0.644 | -0.74 | -0.751
SLC6A15 | 0.0552 | 1.39 | -0.0794 | -0.0724 | -0.0826
ATP5MF (ATP synthase membrane subunit f) | 0.0183 | 1.37 | -0.0924 | 0.178 | 0.0369
COPS3 (COP9 signalosome subunit 3) | -0.7 | 2.78 | -0.636 | -0.673 | -0.721
SRPRA (SRP receptor subunit alpha) | -0.011 | 1.35 | 0.115 | -0.0923 | -0.191
ZNF702P (zinc finger protein 702, pseudogene) | 0.842 | 0.853 | 0.852 | 0.885 | 0.702
CARHSP1 (calcium regulated heat stable protein 1) | -0.434 | 2.42 | -0.109 | -0.639 | -0.497
SOX11 (SRY-box transcription factor 11) | -0.146 | 3.8 | 0.00673 | -0.235 | -0.202
NAT8B (N-acetyltransferase 8B (putative, gene/pseudogene)) | -0.339 | 1.66 | -0.274 | -0.309 | -0.138
POU1F1 (POU class 1 homeobox 1) | 0.422 | 2.15 | 0.371 | 0.724 | 0.491
DSPP (dentin sialophosphoprotein) | 0.287 | 2.93 | 0.307 | 0.268 | 0.13
LRRCC1 (leucine rich repeat and coiled-coil centrosomal protein 1) | 0.329 | 3.26 | 0.223 | 0.17 | 0.339
AATF (apoptosis antagonizing transcription factor) | -0.666 | 2.96 | -0.471 | -0.643 | -0.726
IGBP1 (immunoglobulin binding protein 1) | -0.383 | 2.07 | -0.298 | -0.208 | -0.594
GTF3A (general transcription factor IIIA) | 0.582 | 2.33 | 0.287 | 0.934 | 0.461
MTFR1 (mitochondrial fission regulator 1) | 0.371 | 3.99 | 0.246 | 0.184 | 0.071
EXOC3 (exocyst complex component 3) | -0.0706 | 3.31 | 0.111 | -0.226 | -0.0515
TAF1C | -0.127 | 1.52 | 0.207 | -0.223 | -0.0668
XPO4 (exportin 4) | 0.052 | 1.88 | 0.151 | -0.124 | -0.0818
HES2 (hes family bHLH transcription factor 2) | -0.112 | 2.17 | 0.22 | -0.12 | -0.412
NEUROD6 (neuronal differentiation 6) | -0.376 | 2.01 | -0.585 | -0.318 | -0.17
CSH1 (chorionic somatomammotropin hormone 1) | -0.358 | 1.38 | -0.0171 | -0.308 | -0.963
ARF6 (ARF GTPase 6) | 0.802 | 0.936 | 0.548 | 0.624 | 0.659
TRIM27 (tripartite motif containing 27) | 0.422 | 2.54 | 0.616 | 0.391 | 0.0709
CHST8 (carbohydrate sulfotransferase 8) | -0.6 | 1.31 | -0.356 | -0.769 | -0.466
UNC93B1 (unc-93B1 regulator of TLR signaling) | 0.00599 | 2.12 | -0.341 | -0.227 | 0.271
NIPA2 (NIPA magnesium transporter 2) | 0.449 | 2.29 | 0.372 | 0.343 | 0.508
BICRAL (BICRA like chromatin remodeling complex associated protein) | -0.272 | 1.82 | -0.647 | -0.567 | 0.233
DDX1 (DEAD-box helicase 1) | -0.191 | 2.75 | -0.157 | -0.144 | -0.327
UTS2R (urotensin 2 receptor) | 0.475 | 2.32 | 0.402 | 0.499 | 0.429

Laid out differently: 8 of the entries above
Gene	mean correlation with KSR1 profile	mean distance from KSR1 profile	KSR1 correlation, replicate 1	KSR1 correlation, replicate 2	KSR1 correlation, replicate 3
HES2 (hes family bHLH transcription factor 2)	-0.112	2.17	0.22	-0.12	-0.412
NEUROD6 (neuronal differentiation 6)	-0.376	2.01	-0.585	-0.318	-0.17
CSH1 (chorionic somatomammotropin hormone 1)	-0.358	1.38	-0.0171	-0.308	-0.963
ARF6 (ARF GTPase 6)	0.802	0.936	0.548	0.624	0.659
TRIM27 (tripartite motif containing 27)	0.422	2.54	0.616	0.391	0.0709
CHST8 (carbohydrate sulfotransferase 8)	-0.6	1.31	-0.356	-0.769	-0.466
UNC93B1 (unc-93B1 regulator of TLR signaling)	0.00599	2.12	-0.341	-0.227	0.271
NIPA2 (NIPA magnesium transporter 2)	0.449	2.29	0.372	0.343	0.508

The results go on.
Gene | mean correlation with KSR1 profile | mean distance from KSR1 profile | KSR1 correlation, replicate 1 | KSR1 correlation, replicate 2 | KSR1 correlation, replicate 3
BTRC | 0.761 | 0.567 | 0.339 | 0.695 | 0.69
RUFY2 (RUN and FYVE domain containing 2) | -0.622 | 1.6 | -0.756 | -0.403 | -0.656
USP21 (ubiquitin specific peptidase 21) | -0.552 | 2.19 | -0.245 | -0.66 | -0.744
OXR1 (oxidation resistance 1) | -0.541 | 1.84 | -0.603 | -0.545 | -0.379
MRPS2 (mitochondrial ribosomal protein S2) | -0.714 | 3.14 | -0.514 | -0.539 | -0.706
EGLN1 (egl-9 family hypoxia inducible factor 1) | -0.386 | 4.04 | -0.494 | -0.535 | 0.00218
LEMD3 (LEM domain containing 3) | -0.251 | 2.25 | -0.0141 | -0.467 | -0.452
CREB1 (cAMP responsive element binding protein 1) | 0.677 | 2.21 | 0.809 | 0.525 | 0.463
LSG1 (large 60S subunit nuclear export GTPase 1) | 0.246 | 1.08 | 0.309 | -0.144 | 0.148
DKC1 (dyskerin pseudouridine synthase 1) | -0.475 | 2.82 | -0.423 | -0.68 | -0.616
KNDC1 (kinase non-catalytic C-lobe domain containing 1) | -0.0166 | 2.08 | 0.0583 | -0.125 | -0.156
IFNA13 (interferon alpha 13) | 0.428 | 1.46 | 0.528 | 0.245 | 0.433
NAALADL1 (N-acetylated alpha-linked acidic dipeptidase like 1) | 0.491 | 2.71 | 0.714 | 0.396 | 0.361
PTGFRN (prostaglandin F2 receptor inhibitor) | -0.697 | 2.75 | -0.535 | -0.804 | -0.638
LYSET (lysosomal enzyme trafficking factor) | -0.644 | 2.32 | -0.544 | -0.628 | -0.661
LHCGR (luteinizing hormone/choriogonadotropin receptor) | 0.793 | 1.63 | 0.721 | 0.833 | 0.811
ZNF589 (zinc finger protein 589) | 0.38 | 1.39 | 0.336 | -0.043 | 0.236
SPANXA1 | 0.0971 | 4.79 | 0.00754 | -0.00588 | -0.026
